Results from PubChem BioAssay AID720504 (National Center for Advancing Translational Sciences (NCATS), 2013).
About 10,000 (2.8%) of roughly 360,000 compounds were called active. The inconclusive results got no clear call from the source; some entries with a clear call stand among them for comparison. Calls come from the whole dose curve; as a rule, active = well fitted inhibition curve with a large enough effect; inconclusive = small, poorly fitted or top-dose-only effect; inactive = flat fitted curve, though single readings scatter. Where the call is inconclusive, the potency comes from a doubtful curve fit.

Sequences of proteins named here, by UniProt entry; tags and fusion partners are left off.
UniProt P53350, whole entry, looked up: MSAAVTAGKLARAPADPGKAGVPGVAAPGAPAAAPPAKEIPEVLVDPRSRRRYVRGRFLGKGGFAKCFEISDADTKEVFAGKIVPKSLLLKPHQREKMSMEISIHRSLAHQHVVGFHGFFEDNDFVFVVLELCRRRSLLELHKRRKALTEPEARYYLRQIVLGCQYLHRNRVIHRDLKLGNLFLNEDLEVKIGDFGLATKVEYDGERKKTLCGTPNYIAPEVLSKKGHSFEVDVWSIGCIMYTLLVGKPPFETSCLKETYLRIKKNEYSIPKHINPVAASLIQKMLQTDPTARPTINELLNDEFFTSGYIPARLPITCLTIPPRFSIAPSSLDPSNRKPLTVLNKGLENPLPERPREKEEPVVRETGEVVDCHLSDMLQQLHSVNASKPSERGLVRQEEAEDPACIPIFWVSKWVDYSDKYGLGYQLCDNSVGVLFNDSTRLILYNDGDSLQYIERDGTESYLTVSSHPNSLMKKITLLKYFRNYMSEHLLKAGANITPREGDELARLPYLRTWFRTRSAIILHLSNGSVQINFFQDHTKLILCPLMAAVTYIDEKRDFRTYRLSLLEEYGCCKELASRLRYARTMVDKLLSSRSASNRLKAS

target: Serine/threonine-protein kinase PLK1 (Homo sapiens) (UniProt P53350); test: qHTS for Inhibitors of PLK1-PDB (polo-like kinase 1 - polo-box domain): Primary Screen; conditions: Plk1 PBD binding of FITC phosphopeptide, fluorescence polarization; note: nearly all actives have a fitted effect of over 65% in size; for max response, negative = inhibition: series mostly up to about 57 µM
% is set by controls: 0 for no effect and ±100 for the full control effect; potency is the fitted concentration of half-maximal effect.

Compound	Potency	max response, negative = inhibition
CCc1nc2ccc(C(=O)NCCc3ccc(OC)c(OC)c3)cc2nc1CC	inconclusive: 18.9 µM [inhibitor, partial curve]	–
O=C1NC(NS(=O)(=O)c2ccc(Cl)cc2)(C(F)(F)F)C(=O)N1CCc1ccccc1 (centres undefined)	inconclusive: 29.9 µM [inhibitor, partial curve]	–
CC1=NN(c2ccccc2)C(=O)C1N=Nc1ccccc1 (centres undefined)	–	inactive: -1.64%
COC(=O)CCCC1=CC2=CC(=O)C(C)(OC(=O)CCc3ccccc3)C(=O)C2=CO1 (centres undefined)	–	inconclusive: -34.9% [inhibitor]
O=C(O)c1c(C(=O)O)c(-c2ccc(F)cc2)n2c1CCC2	–	inactive: 2.22%
COc1ccc(/C(C)=N/Nc2ccc(C(=O)O)cc2)c(OC)c1	–	inactive: 2.63%
CC(=O)N1CC[n+]2c(-c3ccc(Cl)cc3)csc21	active: 5.97 µM	–
Cn1c(SCC(=O)c2ccc(F)cc2)nc2cccnc21	inconclusive: 26.7 µM [inhibitor, single point]	–
COc1ccc(NC(=O)c2cc(CN3C(=O)c4ccccc4C3=O)ccc2OC)cn1	active: 26.7 µM	–
O=C(CSc1nc2ncccc2[nH]1)NC1CCCC1	inconclusive: 26.7 µM [inhibitor, single point]	–
Cn1c(=O)n(Cc2ccco2)c(=N)c2c3c(sc21)CCCC3	inconclusive: 5.32 µM [inhibitor, partial curve]	–
Oc1c(Cl)cc(CN2CCOCC2)c2cccnc12	inconclusive: 29.9 µM [inhibitor, single point]	–
CC(C)(C)c1cc(C(=O)CCN2CCOCC2)cc(C(C)(C)C)c1O	–	inconclusive: -33% [inhibitor]
O=c1[nH]c(=O)c2nc3c4ccccc4c4ccccc4c3nc2[nH]1	active: 21.2 µM	–
CCN(CC)C(=O)CSc1nc2sc3c(c2c(=O)n1CCCOC)CCC3	active: 23.8 µM	–
CC(=O)Nc1cccc(-c2ccnc3c2CC(C)(C(=O)Nc2ccc(Cl)c(C(F)(F)F)c2)O3)c1 (centres undefined)	–	inactive: 3.48%
Cc1sc(-c2ccncc2)nc1OC(=O)c1cc(Cl)cc(Cl)c1	inconclusive: 16.8 µM [inhibitor, partial curve]	–
C=CCN1C=C/C(=C\C=C(C#N)C#N)c2ccccc21	–	inactive: 16%
CC1(CCc2ccc3c(c2)OCO3)NC(=O)c2ccccc2N1 (centres undefined)	active: 8.44 µM	–
O=C(N/N=C/c1cnc(N2CCCCC2)s1)c1ccc(Cl)cc1	active: 29.9 µM	–
CC(NC(=O)CN(C)CC(=O)Nc1ccc(Cl)c(C(F)(F)F)c1)c1ccccc1 (centres undefined)	–	inactive: 0.601%
CCOc1ccc(-c2csc(N)c2C(=O)OC)cc1	active: 7.94 µM	–
Cc1ccc(CN2CCN(/N=C/c3cc(Br)ccc3F)CC2)cc1	–	inactive: 8.35%
COc1ccc(OCC(=O)Sc2ccc(C)cc2)cc1	active: 4.74 µM	–
Cc1ccc(S(=O)(=O)N2CCN(c3cnn(C)c(=O)c3Cl)CC2)cc1	inconclusive: 37.7 µM [inhibitor, single point]	–

Compounds from the list above containing an NH in an aromatic ring, in the order listed:
Compound	Potency	max response, negative = inhibition
O=C(CSc1nc2ncccc2[nH]1)NC1CCCC1	inconclusive: 26.7 µM [inhibitor, single point]	–
O=c1[nH]c(=O)c2nc3c4ccccc4c4ccccc4c3nc2[nH]1	active: 21.2 µM	–

Additional structures follow.

Compound	Potency	max response, negative = inhibition
CCOC(=O)c1cccc(NC(=O)CN(c2ccc(OC)cc2)S(=O)(=O)c2c(C)noc2C)c1	–	inactive: 4.88%
COc1ccccc1Cc1c(-c2ccco2)nc2ccc(Br)cn12	active: 13.4 µM	–
C=CCn1c(=O)c(CCC(=O)Nc2ccc(N3CCOCC3)cc2)nc2cc(C(F)(F)F)ccc21	active: 21.2 µM	–
COc1ccc(CC(=O)NNC(=S)Nc2ccccc2)cc1Br	–	inactive: -10.7%
O=C(NCCCc1ccccc1)c1ccncc1	inconclusive: 29.9 µM [inhibitor, single point]	–
O=C(Cc1ccc2c(c1)CCCC2)Nc1ccc2ccccc2c1	inconclusive: 26.7 µM [inhibitor, single point]	–
COC(=O)c1c(NC(=O)C2(C)Cc3ccccc3C(=O)O2)sc2c1CCCC2 (centres undefined)	inconclusive: 23.8 µM [inhibitor, partial curve]	–
CCCc1[nH]nc2c1C(c1cc(OC)ccc1F)C(C#N)=C(N)O2 (centres undefined)	inconclusive: 33.6 µM [inhibitor, partial curve]	–
CCC(C)NC(=O)CC1Oc2ccc(Cl)cc2NC1=O (centres undefined)	inconclusive: 21.2 µM [inhibitor, partial curve]	–
O=C(COc1ccc(Cl)cc1)NCc1ccc(F)cc1	active: 26.7 µM	–
O=C(NCc1ccco1)c1ccc(-c2ccc3nccn3c2)cc1	–	inactive: -12.3%
O=c1[nH]c2ccccc2c2oc(CCl)nc12	inconclusive: 33.6 µM [inhibitor, partial curve]	–
CCCn1c(SCC(=O)Nc2ccc3c(c2)OCCO3)nnc1-c1ccco1	inconclusive: 26.7 µM [inhibitor, partial curve]	–
CCOc1ccc(S(=O)(=O)N2CCN(C(=S)NCC3CCCO3)CC2)cc1 (centres undefined)	–	inactive: 1.52%
CN(CCOC(=O)/C=C/c1ccco1)Cc1ccccc1	inconclusive: 26.7 µM [inhibitor, single point]	–
Cc1ccc(C2/C(=C(\O)c3c(C)nc4ccccn34)C(=O)C(=O)N2CCN(C)C)o1 (centres undefined)	inconclusive: 37.7 µM [inhibitor, single point]	–
COc1ccc(Br)cc1CNC(=O)CCC(=O)n1nc(C)c2ccccc21	inconclusive: 15 µM [inhibitor, partial curve]	–
CCCCOc1ccccc1NC(=O)c1ccc(=O)[nH]c1	active: 29.9 µM	–
Cc1ccc(C(=O)N(CCCN(C)C)c2nc3ccc(Cl)cc3s2)cc1C	–	inactive: 1.19%
CN(C)S(=O)(=O)c1cccc(NC(=S)Nc2cc(Cl)cc(Cl)c2)c1	inconclusive: 33.6 µM [inhibitor, single point]	–
COC(=O)C(Cc1ccc(OC(=O)c2ccc(C(F)(F)F)cc2)cc1)N1Cc2ccccc2C1=O (centres undefined)	inconclusive: 2.67 µM [inhibitor, full curve]	–
CCOc1ccccc1NC(=O)COc1coc(CN2CCCc3ccccc32)cc1=O	–	inactive: -2.78%
CN(Cc1ccsc1)C(=O)CCc1nnc(Cc2c[nH]c3ccccc23)o1	active: 23.8 µM	–
Cc1cc(C)n(CCc2nc(-c3ccc(F)cc3)cs2)n1	–	inactive: -29.8%
